From PMC3905715 (Nature Communications, 2013) come the findings set out here.

Sequences of proteins named here, by UniProt entry; tags and fusion partners are left off. A change or cut given only in a name is not applied to a line headed by its entry.
UniProt A2ARI4: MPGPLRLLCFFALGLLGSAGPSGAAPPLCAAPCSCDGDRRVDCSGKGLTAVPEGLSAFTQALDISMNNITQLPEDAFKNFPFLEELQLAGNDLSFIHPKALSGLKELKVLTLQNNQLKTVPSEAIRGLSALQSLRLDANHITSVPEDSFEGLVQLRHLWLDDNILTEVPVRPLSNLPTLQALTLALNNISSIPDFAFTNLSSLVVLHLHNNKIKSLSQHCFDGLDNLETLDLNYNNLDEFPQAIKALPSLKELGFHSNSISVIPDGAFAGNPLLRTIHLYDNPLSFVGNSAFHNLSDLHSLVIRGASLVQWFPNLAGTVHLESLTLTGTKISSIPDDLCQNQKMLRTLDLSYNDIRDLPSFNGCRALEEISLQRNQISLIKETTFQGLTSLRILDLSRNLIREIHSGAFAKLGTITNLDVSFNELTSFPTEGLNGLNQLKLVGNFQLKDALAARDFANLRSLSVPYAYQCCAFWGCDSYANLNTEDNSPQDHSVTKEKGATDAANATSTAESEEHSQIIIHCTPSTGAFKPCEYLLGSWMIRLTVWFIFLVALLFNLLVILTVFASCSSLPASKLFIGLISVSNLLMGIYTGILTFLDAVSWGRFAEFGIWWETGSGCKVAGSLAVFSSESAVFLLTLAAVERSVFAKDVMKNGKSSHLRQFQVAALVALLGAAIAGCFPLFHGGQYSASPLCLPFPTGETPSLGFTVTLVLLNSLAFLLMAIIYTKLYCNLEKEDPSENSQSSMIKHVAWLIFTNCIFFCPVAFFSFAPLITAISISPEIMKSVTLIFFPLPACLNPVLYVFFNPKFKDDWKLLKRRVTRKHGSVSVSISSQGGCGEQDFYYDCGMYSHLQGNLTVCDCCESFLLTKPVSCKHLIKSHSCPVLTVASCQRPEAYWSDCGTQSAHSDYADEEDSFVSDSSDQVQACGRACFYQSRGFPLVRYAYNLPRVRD

Assay [1] deals with T1, human Rspo1 deltaFurin2-Myc (del 97–142) (human) (UniProt Q2MKA7).
T1 sequence: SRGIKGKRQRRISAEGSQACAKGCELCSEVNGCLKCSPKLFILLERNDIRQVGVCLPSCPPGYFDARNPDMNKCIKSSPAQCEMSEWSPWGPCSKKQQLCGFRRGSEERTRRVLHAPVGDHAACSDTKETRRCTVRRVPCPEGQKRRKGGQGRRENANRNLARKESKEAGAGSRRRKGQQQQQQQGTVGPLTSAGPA
The experiment in a line: co-IP; conditioned media mixed at 4 °C overnight; Myc-tagged Rspo1 derivatives precipitated with anti-Myc (9E10), HA-Lgr4 ECD detected by blot.

In assay [2] the target is Full-length human RSPO1-Myc (1–263) (human) (UniProt Q2MKA7). Described as above.
Assay [3] deals with human Rspo1 deltaFurin1-Myc (del 39–94) (human) (UniProt Q2MKA7). The description is as above.
Assay [4] has as its target human Rspo1 Fu1–Fu2-Myc (1–147) (human) (UniProt Q2MKA7). The description is as above.
Assay [5] addresses human Rspo1 TSR-Myc (1–20, 144–263) (human) (UniProt Q2MKA7). The description is as above.
Assay [6] addresses T2, Human RNF43 ECD-IgG (1–198) (human) (UniProt Q68DV7).
T2 sequence: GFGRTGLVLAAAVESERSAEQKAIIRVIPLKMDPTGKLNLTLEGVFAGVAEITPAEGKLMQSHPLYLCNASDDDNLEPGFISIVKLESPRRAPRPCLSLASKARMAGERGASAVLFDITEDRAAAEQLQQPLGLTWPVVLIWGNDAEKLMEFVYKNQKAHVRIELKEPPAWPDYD
The experiment in a line: co-IP; conditioned media mixed at 4 °C overnight; RNF43 ECD-IgG captured on protein G-agarose, Myc-tagged Rspo1 derivatives detected by blot.

These are yes or no findings as the source states them, for the method shown. In cells and extracts the contact can be indirect. For part of these data: Binding can be weak; no strength is given. For part of these data: Tags and fused reporters may be left off the sequences shown.

“mouse HA-Lgr4 ECD (from UniProt A2ARI4) (domain or fragment)”: the binding result was “no binding” in assay [1]; “binds” in assay [2]; “binds” in assay [3]; “binds” in assay [4]; “no binding” in assay [5].

Regarding “human Rspo1 TSR-Myc (1–20, 144–263) (from UniProt Q2MKA7) (domain or fragment)”, the binding result in assay [6] is listed as “no binding”.
